The list shows a part of the results. Some results for these compounds are left out of this collection, so the calls shown say nothing about other tests.

The experiment in a line: inducers of myeloid progenitor differentiation, confirmation, cell-based, GFP/Mac1 flow cytometry, cherry pick 01 (AID 651706).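 Note: share of live cells carrying both lysozyme GFP and MAC1 staining after four days; test concentration not given here.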 Conditions: ER-HoxA9 myeloid progenitors, measured here: percent double positive cells, stronger effect = higher value.
`CCN(CC)CC(C)C(C)OC(=O)C(O)(c1ccccc1)c1ccccc1` (stereo unspecified) registered a double positive cells of 1.7%.

(Values after PubChem BioAssay AID651706 (NMMLSC, 2012).)
